Data set [1] addresses Nucleolin (NCL), endogenous (Homo sapiens) (UniProt P19338). Kind of data set: pull-down. To be noted: HeLa lysate, protein in an extract, protein details: HeLa cell lysate, label: 5'-biotin, single-stranded DNA.
Data set [2] has as its target MDM2, endogenous (Homo sapiens) (UniProt Q00987). In words: pull-down. To be noted: HeLa lysate; protein in an extract; protein details: HeLa cell lysate; label: 5'-biotin; single-stranded DNA.

Protein sequences, listed by entry. Tags and fused reporters are not part of them. Lines headed by an entry give the natural chain unless they say otherwise; changes in a name come on top. Residues count along the entry.
UniProt P19338, 2-710: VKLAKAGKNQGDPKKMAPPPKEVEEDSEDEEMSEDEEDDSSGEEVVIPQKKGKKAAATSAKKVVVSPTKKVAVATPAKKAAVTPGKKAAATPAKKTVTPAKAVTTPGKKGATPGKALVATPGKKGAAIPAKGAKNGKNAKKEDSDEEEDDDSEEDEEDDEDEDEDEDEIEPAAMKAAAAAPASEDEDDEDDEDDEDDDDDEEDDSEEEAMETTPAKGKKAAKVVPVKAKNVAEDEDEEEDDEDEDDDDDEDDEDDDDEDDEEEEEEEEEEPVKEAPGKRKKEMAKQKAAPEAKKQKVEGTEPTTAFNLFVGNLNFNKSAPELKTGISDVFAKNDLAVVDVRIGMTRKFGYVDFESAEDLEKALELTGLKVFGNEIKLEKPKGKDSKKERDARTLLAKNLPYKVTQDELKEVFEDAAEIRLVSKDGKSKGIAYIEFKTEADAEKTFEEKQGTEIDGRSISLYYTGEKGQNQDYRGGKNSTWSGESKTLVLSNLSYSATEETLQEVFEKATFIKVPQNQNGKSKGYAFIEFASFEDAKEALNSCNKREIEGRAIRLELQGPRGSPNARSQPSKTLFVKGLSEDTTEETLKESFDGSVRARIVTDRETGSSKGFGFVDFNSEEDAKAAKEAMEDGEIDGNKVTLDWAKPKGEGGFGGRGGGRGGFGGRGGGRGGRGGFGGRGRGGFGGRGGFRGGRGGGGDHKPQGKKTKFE
UniProt Q00987: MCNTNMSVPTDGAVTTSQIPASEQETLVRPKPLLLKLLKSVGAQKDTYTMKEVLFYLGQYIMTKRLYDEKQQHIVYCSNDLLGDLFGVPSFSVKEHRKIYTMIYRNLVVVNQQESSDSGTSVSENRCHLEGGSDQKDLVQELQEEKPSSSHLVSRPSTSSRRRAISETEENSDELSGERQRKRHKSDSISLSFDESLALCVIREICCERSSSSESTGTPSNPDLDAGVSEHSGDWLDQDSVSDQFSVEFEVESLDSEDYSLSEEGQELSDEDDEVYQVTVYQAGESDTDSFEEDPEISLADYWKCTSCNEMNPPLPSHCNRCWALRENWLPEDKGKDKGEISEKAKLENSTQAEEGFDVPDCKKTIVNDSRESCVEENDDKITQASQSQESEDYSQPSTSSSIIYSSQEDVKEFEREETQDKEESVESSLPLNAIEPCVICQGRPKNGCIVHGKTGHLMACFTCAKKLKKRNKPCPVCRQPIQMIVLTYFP

For at least one entry, the source does not settle the construct or the ends of the probe. Where cells or extracts were used, other partners may take part. Negatives hold for the conditions tested. For some of these results: Weaker means in comparison with the reference protein, sequence or condition of that experiment.

AGATTAGGGTGAGGGTGA [iSN04]: the binding result in data set [1] (captured only at high concentration) is “binds more weakly”; in data set [2], “no binding”.
Turning to CCTCCTCCTCCTTCTCCTCCTCCTCC [CRO], the binding result is reported as “no binding” in data set [1] (0-20 uM, 4 C) and “no binding” in data set [2].
